Results deposited as PubChem BioAssay AID1224826 (NIAID, 2016)
The whole screen tested about 17,000 reagents; shown is a part drawn at random. In the full data, about 1,110 (6.6%) are marked active. 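Active means lowered or raised reporter signal; replicate intensities are raw and not normalised per plate.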 Reagents against one gene are numbered here. Further read-outs or replicates are left out here.

Test: 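Knock-downs that raise or lower Tnf reporter signal after endotoxin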 (primary screen)
System: RAW264.7 G9 macrophages from mouse bearing reporters for p65 (GFP) and the Tnf promoter (mCherry)
Reagents: siRNA pool against mouse genes, 100 nM
Time to read-out: 16 h of LPS stimulation, after 2 days of siRNA transfection
Treatment: bacterial lipopolysaccharide (Salmonella minnesota R595), 10 ng/ml
Measured: 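Nuclear mCherry signal of the Tnf promoter reporter measured by imaging after background removal, scaled to each plate median and turned into robust z-scores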
Direction: Tnf reporter robust z-score: higher = stronger Tnf promoter reporter signal after LPS
Hit rule: 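a well counts as active at a score of -1.3 or below (Tlr4 knock-down control median) or above 3 (raised signal); controls and wells holding fewer than 50 cells are excluded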
Meaning of the calls: active = Tnf reporter clearly lowered or raised; inactive = no clear change in Tnf reporter

Depletion of Dpp6 (dipeptidylpeptidase 6) #1 came out at: Tnf reporter robust z-score 0.41; fewer than 50 cells in well enough cells in well; inactive.
Silencing of Dpp6 (dipeptidylpeptidase 6) #2 came out at: Tnf reporter robust z-score -0.34; fewer than 50 cells in well enough cells in well; inactive.
For Mcm2 (minichromosome maintenance complex component 2), the entry reads Tnf reporter robust z-score 0.62; fewer than 50 cells in well enough cells in well; inactive.
Or51ag1 (olfactory receptor family 51 subfamily AG member 1) scored Tnf reporter robust z-score 1.98; fewer than 50 cells in well enough cells in well; inactive.
Against Kir3dl2, the entry reads Tnf reporter robust z-score -0.71; fewer than 50 cells in well enough cells in well; inactive.
Knock-down of Vangl1 (VANGL planar cell polarity 1) gave: Tnf reporter robust z-score -0.98; fewer than 50 cells in well enough cells in well; inactive.
For Tmc8 (transmembrane channel-like gene family 8), the entry reads Tnf reporter robust z-score 0.06; fewer than 50 cells in well enough cells in well; inactive.
With knock-down of Semg1 (semenogelin 1), the screen gave Tnf reporter robust z-score 0.69; fewer than 50 cells in well enough cells in well; inactive.
For Klhl36 (kelch-like 36), the values are Tnf reporter robust z-score -0.3; fewer than 50 cells in well enough cells in well; inactive.
For Esrra (estrogen related receptor, alpha), the values are Tnf reporter robust z-score 0.05; fewer than 50 cells in well enough cells in well; inactive.
After knock-down of Reck (reversion-inducing-cysteine-rich protein with kazal motifs), the record shows Tnf reporter robust z-score 0.01; fewer than 50 cells in well enough cells in well; inactive.
Fkbp5 (FK506 binding protein 5) scored Tnf reporter robust z-score -0.81; fewer than 50 cells in well enough cells in well; inactive.
Silencing of Dmrt2 (doublesex and mab-3 related transcription factor 2) came out at: Tnf reporter robust z-score -0.85; fewer than 50 cells in well enough cells in well; inactive.
With knock-down of Kcnrg (potassium channel regulator), the screen gave Tnf reporter robust z-score 2.63; fewer than 50 cells in well enough cells in well; inactive.
Against Mc5r (melanocortin 5 receptor), the values are Tnf reporter robust z-score 0.63; fewer than 50 cells in well enough cells in well; inactive.
Against Krtap16-3 (keratin associated protein 16-3), the entry reads Tnf reporter robust z-score -0.68; fewer than 50 cells in well enough cells in well; inactive.
Depletion of Cplx3 (complexin 3) came out at: Tnf reporter robust z-score 0.08; fewer than 50 cells in well enough cells in well; inactive.
After knock-down of Atp5f1b (ATP synthase F1 subunit beta), the screen gave Tnf reporter robust z-score 1.8; fewer than 50 cells in well enough cells in well; inactive.
With knock-down of Nudt8 (nudix hydrolase 8), the screen gave Tnf reporter robust z-score 0.64; fewer than 50 cells in well enough cells in well; inactive.
Knock-down of Or51b17 (olfactory receptor family 51 subfamily B member 17) resulted in: Tnf reporter robust z-score -0.86; fewer than 50 cells in well enough cells in well; inactive.
Knock-down of Mgat1 (mannoside acetylglucosaminyltransferase 1) gave: Tnf reporter robust z-score 0.05; fewer than 50 cells in well enough cells in well; inactive.
After knock-down of Mmel1 (membrane metalloendopeptidase like 1), the record shows Tnf reporter robust z-score -0.75; fewer than 50 cells in well enough cells in well; inactive.
Cbr1 (carbonyl reductase 1) showed Tnf reporter robust z-score -0.71; fewer than 50 cells in well enough cells in well; inactive.
With knock-down of Cldn14 (claudin 14) the results were Tnf reporter robust z-score 1.74; fewer than 50 cells in well enough cells in well; inactive.
Or8b47 (olfactory receptor family 8 subfamily B member 47) showed fewer than 50 cells in well fewer than 50 cells per well; well left out of calls; inactive.
Brms1l (breast cancer metastasis-suppressor 1-like) gave Tnf reporter robust z-score 1.08; fewer than 50 cells in well enough cells in well; inactive.
Six1 (sine oculis-related homeobox 1) scored Tnf reporter robust z-score -0.98; fewer than 50 cells in well enough cells in well; inactive.
